The values below come from patent EP0117034 (dated 1984).

This series in a line: Boc solid-phase peptide synthesis; MBHA resin; carbodiimides, such as N,N'-diisopropyl carbodiimide. Conditions: whole synthesis, TLC and HPLC.

For the substance [IIe^27]-hpGRF(1―40)-NH2, the “final HPLC purity” value was “greater than 98%”.
